Assay results taken from patent publication US20090042987A1, “TREATMENT OF NEUROPATHIC PAIN” (priority 2007, published 2009).
Some entries share one result that the patent states for a list of compounds.

System: STZ-diabetic rats
Test: von Frey paw withdrawal thresholds, STZ-diabetic rats given multiple dosing regimens (washout protocol), Example 1
Format: in vivo, rat
Conditions: gabapentin 100 mg/kg s.c., 7th twice-daily dose
Method: Experimental Animals Ethical approval for this study was obtained from the Animal Experimentation Ethics Committee of The University of Queensland. Adult male Sprague-Dawley (SD) rats (222±4 g) were used for this study. Rats were housed in a temperature controlled room (21+2.0 C) with a 12/12 hour light/dark cycle. Food and water were available ad libitum. Initiation of drug administration occurred at 8-11 weeks post-STZ administration for rats in Experiment 1 (PCT-001) and at 10-12 weeks post-STZ administration for rats in Experiment 2 (PCT-007).
Test Article Tranilast was supplied by the Sponsor and stored at −4° C. until use. Gabapentin (100 mg/kg, dissolved in water for injection) was utilized as the positive control for this study. […]
Induction of STZ-Diabetes in Rats. […] Rats were housed singly prior to further experimentation and were monitored daily from the time of STZ administration with regard to general health and well-being. […]
Restoring von-Frey PWTs in the hindpaws from <6 g to pre-STZ surgery levels (12±2 g) is the treatment goal representing full reversal of tactile allodynia. […] Before administration of STZ, baseline von Frey measurements were assessed. Following STZ administration, baseline PWTs were assessed in the hindpaws at week 8-11 to confirm the development of diabetes-induced tactile allodynia. […]

SMILES: NCC1(CC(=O)O)CCCCC1 [Gabapentin]
- Duration of action: > 3 h
